Results published in patent US20030199429A1.
These are yes or no findings as the source states them, for the method shown. Some results given as binding are weak or reduced against the parent protein; the word gives no strength.

Protein sequences, listed by entry. Tags and fused reporters are not part of them. Lines headed by an entry give the natural chain unless they say otherwise; changes in a name come on top.
UniProt Q15303: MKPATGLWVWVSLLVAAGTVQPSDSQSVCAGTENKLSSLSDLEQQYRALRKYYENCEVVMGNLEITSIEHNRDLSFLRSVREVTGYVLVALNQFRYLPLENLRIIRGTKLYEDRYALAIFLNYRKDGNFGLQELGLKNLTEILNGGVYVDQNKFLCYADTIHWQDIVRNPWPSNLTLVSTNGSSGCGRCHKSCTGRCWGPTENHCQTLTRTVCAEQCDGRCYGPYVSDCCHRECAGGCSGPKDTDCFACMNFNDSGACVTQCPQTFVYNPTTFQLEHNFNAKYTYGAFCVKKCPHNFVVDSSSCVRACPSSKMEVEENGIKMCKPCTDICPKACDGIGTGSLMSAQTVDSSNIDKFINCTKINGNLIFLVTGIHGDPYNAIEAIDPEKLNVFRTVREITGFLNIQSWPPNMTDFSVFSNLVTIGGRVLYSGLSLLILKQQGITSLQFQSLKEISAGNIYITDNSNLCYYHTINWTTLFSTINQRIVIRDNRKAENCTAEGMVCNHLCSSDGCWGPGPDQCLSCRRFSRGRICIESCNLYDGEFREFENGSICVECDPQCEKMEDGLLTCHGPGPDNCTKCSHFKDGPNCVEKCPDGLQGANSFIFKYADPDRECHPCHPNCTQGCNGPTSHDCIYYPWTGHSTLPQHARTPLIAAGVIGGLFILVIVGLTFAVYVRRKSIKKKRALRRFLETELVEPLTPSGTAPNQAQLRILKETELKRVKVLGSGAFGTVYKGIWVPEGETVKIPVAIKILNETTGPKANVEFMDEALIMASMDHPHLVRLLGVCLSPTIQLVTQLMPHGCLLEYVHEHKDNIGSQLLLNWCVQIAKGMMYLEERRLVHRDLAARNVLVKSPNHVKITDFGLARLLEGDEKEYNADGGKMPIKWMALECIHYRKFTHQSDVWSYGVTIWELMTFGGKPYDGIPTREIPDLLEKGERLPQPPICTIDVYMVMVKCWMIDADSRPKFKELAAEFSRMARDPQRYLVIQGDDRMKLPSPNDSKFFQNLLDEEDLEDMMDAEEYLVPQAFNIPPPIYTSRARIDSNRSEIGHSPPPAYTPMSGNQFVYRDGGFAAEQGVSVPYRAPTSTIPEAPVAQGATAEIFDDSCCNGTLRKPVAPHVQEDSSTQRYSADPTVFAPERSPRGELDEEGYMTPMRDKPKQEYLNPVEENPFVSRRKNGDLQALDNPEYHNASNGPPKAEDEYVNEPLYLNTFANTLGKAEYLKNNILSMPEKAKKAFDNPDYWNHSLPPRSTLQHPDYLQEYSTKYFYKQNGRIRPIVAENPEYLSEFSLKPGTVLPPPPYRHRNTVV

Molecular target: HER2/HER4 IgG heterodimers (human) (UniProt P04626+Q15303)
Assay: Western blot under non reducing conditions probed with HER2/HER4 IgG heterodimers

binding: binds
B1: γ-HRG (partially purified from conditioned medium of MDA-MB-175 cells) (ligand)
chain: MDVKERKPYRSLTRRRDAERRYTSSSADSEEGKAPQKSYSSSETLKAYDQDARLAYGSRVKDIVPQEAEEFCRTGANFTLRELGLEEVTPPHGTLYRTDIGLPHCGYSMGAGSDADMEADTVLSPEHPVRLWGRSTRSGRSSCLSSRANSNLTLTDTEHENTETDHPGGLQNHARLRTPPPPLSHAHTPNQHHAASINSLNRGNFTPRSNPSPAPTDHSLSGEPPAGGAQEPAHAQENWLLNSNIPLETRNLGKQPFLGTLQDNLIEMDILGASRHDGAYSDGHFLFKPGGTSPLFCTTSPGYPLTSSTVYSPPPRPLPRSTFARPAFNLKKPSKYCNWKCAALSAIVISATLVILLAYFVAMHLFGLNWHLQPMEGQMYEITEDTASSWPVPTDVSLYPSGGTGLETPDRKGKGTTEGKPSSFFPEDSFIDSGEIDVGRRASQKIPPGTFWRSQVFIDHPVHLKFNVSLGKAALVGIYGRKGLPPSHTQFDFVELLDGRRLLTQEARSLEGTPRQSRGTVPPSSHETGFIQYLDSGIWHLAFYNDGKESEVVSFLTTAIALPPRLKEMKSQESAAGSKLVLRCETSSEYSSLRFKWFKNGNELNRKNKPQNIKIQKKPGKSELRINKASLADSGEYMCKVISKLGNDSASANITIVESNEIITGMPASTEGAYVSSESPIRISVSTEGANTSSSTSTSTTGTSHLVKCAEKEKTFCVNGGECFMVKDLSNPSRYLCKCPNEFTGDRCQNYVMASFYSTSTPFLSLPE
